Measured values taken from publication PMC8002523.
The exact form of at least one protein or probe is not confirmed.

Legend:
[1] = target: glycated human serum albumin (GHSA) (Homo sapiens) (UniProt P02768); assay: fluorescence recovery from graphene oxide; conditions: GHSA 0.0001-5 mg/mL, Binding buffer, aptamer stock 2.0 uM in sterile deionized water, ferricyanide redox probe, fluorescence ex 480 / em 520 nm, commercial protein, label: 5'-FAM (56-FAM), single-stranded DNA
[2] = target: glycated human serum albumin (GHSA) (Homo sapiens) (UniProt P02768); assay: electrochemical displacement from graphene oxide (SWV); conditions: unlabeled aptamer, Binding buffer, aptamer stock 2.0 uM in sterile deionized water, ferricyanide redox probe, fluorescence ex 480 / em 520 nm, commercial protein, single-stranded DNA

Sequence | binding result [1] | binding result [2]
TGCGGTTCGTGCGGTTGTAGTAC [Modified G8-FAM] | binds | 
TGCGGTTCGTGCGGTTGTAGTAC [Modified G8] |  | binds
